US8912144B2, “Method for treating stroke via administration of NEP1-40 and inosine” (Children's Medical Center Corporation, priority 2003, dated 2014)
The source gives many values for each of these; only a part stands here.

Tested on: corticospinal neurons (CSNs/CSMNs)
Test: Laser-capture microdissection and Illumina microarray gene expression in corticospinal neurons contralateral to stroke
Format: in vivo, rat
Procedure: In a separate group of animals (n=20), layer V pyramidal cells of the sensorimotor cortex were retrogradely labeled by injecting Alexa-Fluor-488-conjugated cholera toxin B subunit (CTB; 300 U/μl in sterile saline) into the cervical spinal cord. For this, animals were anesthetized with a combination of ketamine and Domitor (medetomidine) and a laminectomy was performed at the cervical level of the spinal cord (C2-C4). CTB was stereotaxically delivered into four sites lateral to the corticospinal tract. Injections (1.3 μl) were spaced 1 mm apart on the rostro-caudal axis, and were made 0.5 mm to the left and right of the midline. After allowing two weeks for transport of the tracer, we performed either sham surgery with no treatment (n=6) or stroke surgery combined with saline (n=3) or inosine (n=4) treatment as described above. Seven days later, animals were decapitated under transient gas anesthesia, brains were removed and rinsed in cold RPMI medium, and a tissue block containing the sensorimotor cortex was dissected and placed in OCT Tissue Tek Medium (Sakura Finetek USA Inc., CA) on dry ice within five minutes of death. Ten μm sections were cut onto precleaned Gold Seal RITE-ON glass slides (Gold Seal Prod-ucts, Portsmouth, N.H.), placed on dry ice, and rapidly stored at −80° C.
Slide-mounted sections were thawed and dehydrated in RNAse-free ethanol gradients and xylene. Retro-gradely labeled, fluorescent cortical pyramidal cells in the undamaged hemisphere were individually captured using the Arcturus VERITAS system. ≧500 cells were collected from each animal and stored in Arcturus extraction buffer at −80° C. Total RNA was extracted from cells using the Micro-to-Midi TotalRNA Purification System (Invitrogen, Carlsbad Calif.) and double-amplified using the TargetAmp 2-Round Aminoallyl-aRNA Amplification kit 1.0 (Epicentre, Madison, Wis.). Amplified RNA was checked for average fragment length using the Agilent RNA 6000 Nano LabChip kit (Agilent Technologies, Santa Clara, Calif.) and then biotinylated and hybridized (1 μg) on Illumina RatRef-12 Expression BeadChip arrays (Illumina, San Diego Calif.), querying the expression of >22,000 RefSeq-curated rat transcripts. Results were obtained from a total of 15 samples representing 6 untreated controls, 4 animals with stroke treated with saline and 5 animals with stroke treated with inosine. Slides were processed and scanned with Illumina BeadStation platform according to the manufacturer protocol.
Raw data was analyzed using Bioconductor packages (www.bioconductor.org, (Gentleman et al., 2004)). Low level quality-control analysis was performed using inter-array Pearson correlation and clustering based on variance. Two arrays (1 saline and 1 inosine-treated) were outliers and were excluded from the analysis. Data was normalized using quantile normalization, and analysis of differential expression was performed using a linear model fitting (LIMMA package, (Smyth, 2005). Differentially expressed genes were classified according to gene ontology using Bioconductor packages and online tools (DAVID, http://david.abcc.ncifcrf.gov/). Pathway analysis was carried out using Ingenuity Pathway Analysis (Ingenuity Systems, www.ingenuity.com).

OC[C@H]1O[C@@H](n2cnc3c(O)ncnc32)[C@H](O)[C@@H]1O [inosine]
Signal Intensity Inosine (LOC498726 ILMN_51854): 465 | Fold-Induction Stroke, ino vs. cntrl (LOC499015 ILMN_53627): 1.79 | Signal Intensity Inosine (LOC499015 ILMN_53627): 849 | Fold-Induction Stroke, ino vs. cntrl (LOC500721 ILMN_54363): 0.57 | Signal Intensity Inosine (LOC500721 ILMN_54363): 263 | Fold-Induction Stroke, ino vs. cntrl (LOC500795 ILMN_57850): 1.66 | Signal Intensity Inosine (LOC500795 ILMN_57850): 1141 | Fold-Induction Stroke, ino vs. cntrl (LOC501102 ILMN_48881): 1.98 | Signal Intensity Inosine (LOC501102 ILMN_48881): 669 | Fold-Induction Stroke, ino vs. cntrl (LOC501140 ILMN_52213): 0.25 | Signal Intensity Inosine (LOC501140 ILMN_52213): 106 | Fold-Induction Stroke, ino vs. cntrl (Lamb2 ILMN_55192): 1.88 | Signal Intensity Inosine (Lamb2 ILMN_55192): 2612 | Fold-Induction Stroke, ino vs. cntrl (Laptm5 ILMN_49562): 2.42 | Signal Intensity Inosine (Laptm5 ILMN_49562): 2101 | Fold-Induction Stroke, ino vs. cntrl (Ler3 ILMN_56245): 1.92 | Signal Intensity Inosine (Ler3 ILMN_56245): 1007 | Fold-Induction Stroke, ino vs. cntrl (Lr8 ILMN_66840): 1.90 | Signal Intensity Inosine (Lr8 ILMN_66840): 2275 | Fold-Induction Stroke, ino vs. cntrl (Lrrk1 ILMN_49754): 1.98 | Signal Intensity Inosine (Lrrk1 ILMN_49754): 903 | Fold-Induction Stroke, ino vs. cntrl (Lsm8 ILMN_63816): 0.44 | Signal Intensity Inosine (Lsm8 ILMN_63816): 343 | Fold-Induction Stroke, ino vs. cntrl (Lyl1 ILMN_51710): 2.44 | Signal Intensity Inosine (Lyl1 ILMN_51710): 604 | Fold-Induction Stroke, ino vs. cntrl (MGC72598 ILMN_66296): 1.92 | Signal Intensity Inosine (MGC72598 ILMN_66296): 1183 | Fold-Induction Stroke, ino vs. cntrl (MGC105797 ILMN_67564): 1.76 | Signal Intensity Inosine (MGC105797 ILMN_67564): 760 | Fold-Induction Stroke, ino vs. cntrl (Ms4a6b ILMN_67686): 2.44 | Signal Intensity Inosine (Ms4a6b ILMN_67686): 588 | Fold-Induction Stroke, ino vs. cntrl (Mus81 ILMN_56191): 2.00 | Signal Intensity Inosine (Mus81 ILMN_56191): 817 | Fold-Induction Stroke, ino vs. cntrl (Nell1 ILMN_52256): 0.49 | Signal Intensity Inosine (Nell1 ILMN_52256): 2125 | Fold-Induction Stroke, ino vs. cntrl (Npc2 ILMN_59161): 1.82 | Signal Intensity Inosine (Npc2 ILMN_59161): 7067 | Fold-Induction Stroke, ino vs. cntrl (Ntrk2 ILMN_62536): 0.56 | Signal Intensity Inosine (Ntrk2 ILMN_62536): 1376 | Fold-Induction Stroke, ino vs. cntrl (Nup35 ILMN_56075): 0.40 | Signal Intensity Inosine (Nup35 ILMN_56075): 357 | Fold-Induction Stroke, ino vs. cntrl (Pdlim7 ILMN_52167): 2.42 | Signal Intensity Inosine (Pdlim7 ILMN_52167): 957 | Fold-Induction Stroke, ino vs. cntrl (Phyhd1 ILMN_52522): 2.19 | Signal Intensity Inosine (Phyhd1 ILMN_52522): 1098 | Fold-Induction Stroke, ino vs. cntrl (Rab9 ILMN_47975): 0.49 | Signal Intensity Inosine (Rab9 ILMN_47975): 278 | Fold-Induction Stroke, ino vs. cntrl (Rhoc ILMN_61063): 2.23 | Signal Intensity Inosine (Rhoc ILMN_61063): 2204 | Fold-Induction Stroke, ino vs. cntrl (Rnf7 ILMN_65606): 0.52 | Signal Intensity Inosine (Rnf7 ILMN_65606): 460 | Fold-Induction Stroke, ino vs. cntrl (Rnf138 ILMN_52424): 0.53 | Signal Intensity Inosine (Rnf138 ILMN_52424): 636 | Fold-Induction Stroke, ino vs. cntrl (Rraga ILMN_48422): 0.37 | Signal Intensity Inosine (Rraga ILMN_48422): 693 | Fold-Induction Stroke, ino vs. cntrl (Slc13a3 ILMN_56539): 2.29 | Signal Intensity Inosine (Slc13a3 ILMN_56539): 888 | Fold-Induction Stroke, ino vs. cntrl (Slc15a3 ILMN_61391): 2.51 | Signal Intensity Inosine (Slc15a3 ILMN_61391): 842 | Fold-Induction Stroke, ino vs. cntrl (Sparc ILMN_55504): 2.50 | Signal Intensity Inosine (Sparc ILMN_55504): 2041 | Fold-Induction Stroke, ino vs. cntrl (Stch ILMN_54952): 0.33 | Signal Intensity Inosine (Stch ILMN_54952): 304 | Fold-Induction Stroke, ino vs. cntrl (Sugt1 ILMN_59830): 0.43 | Signal Intensity Inosine (Sugt1 ILMN_59830): 424 | Fold-Induction Stroke, ino vs. cntrl (Svil ILMN_61732): 2.18 | Signal Intensity Inosine (Svil ILMN_61732): 879 | Fold-Induction Stroke, ino vs. cntrl (Tead3 ILMN_62982): 2.28 | Signal Intensity Inosine (Tead3 ILMN_62982): 721 | Fold-Induction Stroke, ino vs. cntrl (Tsn ILMN_50850): 0.43 | Signal Intensity Inosine (Tsn ILMN_50850): 220 | Fold-Induction Stroke, ino vs. cntrl (Ucp2 ILMN_69305): 2.02 | Signal Intensity Inosine (Ucp2 ILMN_69305): 1632 | Fold-Induction Stroke, ino vs. cntrl (Vim ILMN_54242): 1.66 | Signal Intensity Inosine (Vim ILMN_54242): 1352 | Fold-Induction Stroke, ino vs. cntrl (Znf148 ILMN_53875): 0.47 | Signal Intensity Inosine (Znf148 ILMN_53875): 1149 | Fold-Induction Stroke, ino vs. cntrl (gene P2rxl1 (ILMN_68585), CSMNs contralateral to SMA infarct, stroke + inosine vs control): 0.76 | Fold-Induction Stroke, ino vs. cntrl (gene Tm7sf2 (ILMN_58100), CSMNs contralateral to SMA infarct, stroke + inosine vs control): 0.65
